No constants are given. Whether binding was seen depends on the method and setting. Some entries that bind do so weakly or less than the wild type.
B1: HuJS007-24 (antibody, V domains shown)
VH: QVQLQESGPGLVKPSETLSLTCTVTGYSITSGYYWNWIRQPAGKGLEWIGYIGYDGSNYYNPSLKSRVTISRDTSKNQFSLKLSSVTAADTAVYFCARNYYSGYFDFWGQGTTLTVSS
VL: DIVMTQSPDSLAVSLGERATINCKASQNVGTYVAWYQQKPGQPPKLLIYSTSYRYSGVPDRFSGSGSGTDFTLTISSLQAEDVAVYYCHQYDTYPLTFGQGTKLEIK
B2: HuJS007-27 (antibody, V domains shown)
VH: QVQLQESGPGLVKPSETLSLTCTVTGYSITSGYYWNWIRQPAGKGLEWIGYIGYDGSNYYNPSLKSRVTISRDTSKNQFSLKLSSVTAADTAVYFCARNYYSGYFDFWGQGTTLTVSS
VL: EIVMTQSPATLSVSPGERATLSCKASQNVGTYVAWYQQKPGQAPRPLIYSTSYRYSGIPARFSGSGSGTEFTLTISSLQSEDFAVYFCHQYDTYPLTFGQGTKLEIK
B3: HuJS007-42 (antibody, V domains shown)
VH: QVQLQESGPGLVKPSQTLSLTCTVSGYSITSGYYWNWIRQHPGKGLEWIGYIGYDGSNNYNPSLKSRVTISRDTSKNQFSLKLSSVTAADTAVYYCARDYYSGYFDSWGQGTTLTVSS
VL: DIVMTQSPDSLAVSLGERATINCKASQNVGTYVAWYQQKPGQPPKLLIYSTSYRYSGVPDRFSGSGSGTDFTLTISSLQAEDVAVYYCHQYDTYPLTFGQGTKLEIK
B4: HuJS007-32 (antibody, V domains shown)
VH: QVQLQESGPGLVKPSQTLSLTCAVSGYSITSGYYWNWIRQHPGKGLEWIGYIGYDGSNYYNPSLKSRVTISRDTSKNQFSLKLSSVTAADTAVYFCARNYYSGYFDFWGQGTTLTVSS
VL: DIQMTQSPSSLSASVGDRVTITCQASQNVGTYVAWYQQKPGKAPKPLIYSTSYRYSGVPSRFSGSGSGTDFTFTISSLQPEDIATYFCHQYDTYPLTFGAGTKLELK
B5: HuJS007-30 (antibody, V domains shown)
VH: QVQLQESGPGLVKPSQTLSLTCAVSGYSITSGYYWNWIRQHPGKGLEWIGYIGYDGSNYYNPSLKSRVTISRDTSKNQFSLKLSSVTAADTAVYFCARNYYSGYFDFWGQGTTLTVSS
VL: DIQMTQSPSSLSASVGDRVTITCRASQNVGTYVAWYQQKPGKAPKPLIYSTSYRYSGVPSRFSGSGSGTDFTLTISSLQPEDFATYFCHQYDTYPLTFGAGTKLELK
B6: HuJS007-37 (antibody, V domains shown)
VH: QVQLQESGPGLVKPSQTLSLTCTVSGYSITSGYYWNWIRQHPGKGLEWIGYIGYDGSNNYNPSLKSRVTISRDTSKNQFSLKLSSVTAADTAVYYCARDYYSGYFDSWGQGTTLTVSS
VL: DIVMTQSPDSLAVSLGERATINCKASQNVGTYVAWYQQKPGQPPKPLIYSTSYRYSGVPDRFSGSGSGTDFTLTISSLQAEDVAVYFCHQYDTYPLTFGAGTKLELK
B7: HuJS007-43 (antibody, V domains shown)
VH: QVQLQESGPGLVKPSQTLSLTCTVSGYSITSGYYWNWIRQHPGKGLEWIGYIGYDGSNNYNPSLKSRVTISRDTSKNQFSLKLSSVTAADTAVYYCARDYYSGYFDSWGQGTTLTVSS
VL: EIVMTQSPATLSVSPGERATLSCRASQNVGTYVAWYQQKPGQAPRPLIYSTSYRYSGIPARFSGSGSGTEFTLTISSLQSEDFAVYYCHQYDTYPLTFGQGTKLEIK
B8: HuJS007-40 (antibody, V domains shown)
VH: QVQLQESGPGLVKPSQTLSLTCTVSGYSITSGYYWNWIRQHPGKGLEWIGYIGYDGSNNYNPSLKSRVTISRDTSKNQFSLKLSSVTAADTAVYYCARDYYSGYFDSWGQGTTLTVSS
VL: DIQMTQSPSFLSASVGDRVTITCRASQNVGTYVAWYQQKPGKAPKPLIYSTSYRYSGVPSRFSGSGSGTEFTLTISSLQPEDFATYFCHQYDTYPLTFGAGTKLELK
B9: HuJS007-39 (antibody, V domains shown)
VH: QVQLQESGPGLVKPSQTLSLTCTVSGYSITSGYYWNWIRQHPGKGLEWIGYIGYDGSNNYNPSLKSRVTISRDTSKNQFSLKLSSVTAADTAVYYCARDYYSGYFDSWGQGTTLTVSS
VL: DIQMTQSPSSLSASVGDRVTITCRASQNVGTYVAWYQQKPGKAPKPLIYSTSYRYSGVPSRFSGSGSGTDFTLTISSLQPEDFATYFCHQYDTYPLTFGAGTKLELK
B10: HuJS007-38 (antibody, V domains shown)
VH: QVQLQESGPGLVKPSQTLSLTCTVSGYSITSGYYWNWIRQHPGKGLEWIGYIGYDGSNNYNPSLKSRVTISRDTSKNQFSLKLSSVTAADTAVYYCARDYYSGYFDSWGQGTTLTVSS
VL: DIQMTQSPSSLSASVGDRVTITCRASQNVGTYVAWYQQKPGKVPKPLIYSTSYRYSGVPSRFSGSGSGTDFTLTISSLQPEDVATYFCHQYDTYPLTFGAGTKLELK
B11: HuJS007-33 (antibody, V domains shown)
VH: QVQLQESGPGLVKPSQTLSLTCAVSGYSITSGYYWNWIRQHPGKGLEWIGYIGYDGSNYYNPSLKSRVTISRDTSKNQFSLKLSSVTAADTAVYFCARNYYSGYFDFWGQGTTLTVSS
VL: DIVMTQSPDSLAVSLGERATINCKASQNVGTYVAWYQQKPGQPPKLLIYSTSYRYSGVPDRFSGSGSGTDFTLTISSLQAEDVAVYYCHQYDTYPLTFGQGTKLEIK
B12: HuJS007-41 (antibody, V domains shown)
VH: QVQLQESGPGLVKPSQTLSLTCTVSGYSITSGYYWNWIRQHPGKGLEWIGYIGYDGSNNYNPSLKSRVTISRDTSKNQFSLKLSSVTAADTAVYYCARDYYSGYFDSWGQGTTLTVSS
VL: DIQMTQSPSSLSASVGDRVTITCQASQNVGTYVAWYQQKPGKAPKPLIYSTSYRYSGVPSRFSGSGSGTDFTFTISSLQPEDIATYFCHQYDTYPLTFGAGTKLELK
B13: HuJS007-31 (antibody, V domains shown)
VH: QVQLQESGPGLVKPSQTLSLTCAVSGYSITSGYYWNWIRQHPGKGLEWIGYIGYDGSNYYNPSLKSRVTISRDTSKNQFSLKLSSVTAADTAVYFCARNYYSGYFDFWGQGTTLTVSS
VL: DIQMTQSPSFLSASVGDRVTITCRASQNVGTYVAWYQQKPGKAPKPLIYSTSYRYSGVPSRFSGSGSGTEFTLTISSLQPEDFATYFCHQYDTYPLTFGAGTKLELK
B14: HuJS007-34 (antibody, V domains shown)
VH: QVQLQESGPGLVKPSQTLSLTCAVSGYSITSGYYWNWIRQHPGKGLEWIGYIGYDGSNYYNPSLKSRVTISRDTSKNQFSLKLSSVTAADTAVYFCARNYYSGYFDFWGQGTTLTVSS
VL: EIVMTQSPATLSVSPGERATLSCRASQNVGTYVAWYQQKPGQAPRPLIYSTSYRYSGIPARFSGSGSGTEFTLTISSLQSEDFAVYYCHQYDTYPLTFGQGTKLEIK
B15: HuJS007-29 (antibody, V domains shown)
VH: QVQLQESGPGLVKPSQTLSLTCAVSGYSITSGYYWNWIRQHPGKGLEWIGYIGYDGSNYYNPSLKSRVTISRDTSKNQFSLKLSSVTAADTAVYFCARNYYSGYFDFWGQGTTLTVSS
VL: DIQMTQSPSSLSASVGDRVTITCRASQNVGTYVAWYQQKPGKVPKPLIYSTSYRYSGVPSRFSGSGSGTDFTLTISSLQPEDVATYFCHQYDTYPLTFGAGTKLELK
B16: HuJS007-28 (antibody, V domains shown)
VH: QVQLQESGPGLVKPSQTLSLTCAVSGYSITSGYYWNWIRQHPGKGLEWIGYIGYDGSNYYNPSLKSRVTISRDTSKNQFSLKLSSVTAADTAVYFCARNYYSGYFDFWGQGTTLTVSS
VL: DIVMTQSPDSLAVSLGERATINCKASQNVGTYVAWYQQKPGQPPKPLIYSTSYRYSGVPDRFSGSGSGTDFTLTISSLQAEDVAVYFCHQYDTYPLTFGAGTKLELK
B17: HuJS007-36 (antibody, V domains shown)
VH: QVQLQESGPGLVKPSQTLSLTCAVSGYSITSGYYWNWIRQHPGKGLEWIGYIGYDGSNYYNPSLKSRVTISRDTSKNQFSLKLSSVTAADTAVYFCARNYYSGYFDFWGQGTTLTVSS
VL: EIVMTQSPATLSVSPGERATLSCKASQNVGTYVAWYQQKPGQAPRPLIYSTSYRYSGIPARFSGSGSGTEFTLTISSLQSEDFAVYFCHQYDTYPLTFGQGTKLEIK
B18: HuJS007-44 (antibody, V domains shown)
VH: QVQLQESGPGLVKPSQTLSLTCTVSGYSITSGYYWNWIRQHPGKGLEWIGYIGYDGSNNYNPSLKSRVTISRDTSKNQFSLKLSSVTAADTAVYYCARDYYSGYFDSWGQGTTLTVSS
VL: DIVMTQSPDSLAVSLGERATINCKASQNVGTYVAWYQQKPGQPPKPLIYSTSYRYSGVPDRFSGSGSGTDFTLTISSLQAEDVAVYFCHQYDTYPLTFGQGTKLEIK
B19: HuJS007-35 (antibody, V domains shown)
VH: QVQLQESGPGLVKPSQTLSLTCAVSGYSITSGYYWNWIRQHPGKGLEWIGYIGYDGSNYYNPSLKSRVTISRDTSKNQFSLKLSSVTAADTAVYFCARNYYSGYFDFWGQGTTLTVSS
VL: DIVMTQSPDSLAVSLGERATINCKASQNVGTYVAWYQQKPGQPPKPLIYSTSYRYSGVPDRFSGSGSGTDFTLTISSLQAEDVAVYFCHQYDTYPLTFGQGTKLEIK
B20: HuJS007-25 (antibody, V domains shown)
VH: QVQLQESGPGLVKPSETLSLTCTVTGYSITSGYYWNWIRQPAGKGLEWIGYIGYDGSNYYNPSLKSRVTISRDTSKNQFSLKLSSVTAADTAVYFCARNYYSGYFDFWGQGTTLTVSS
VL: EIVMTQSPATLSVSPGERATLSCRASQNVGTYVAWYQQKPGQAPRPLIYSTSYRYSGIPARFSGSGSGTEFTLTISSLQSEDFAVYYCHQYDTYPLTFGQGTKLEIK
B21: HuJS007-26 (antibody, V domains shown)
VH: QVQLQESGPGLVKPSETLSLTCTVTGYSITSGYYWNWIRQPAGKGLEWIGYIGYDGSNYYNPSLKSRVTISRDTSKNQFSLKLSSVTAADTAVYFCARNYYSGYFDFWGQGTTLTVSS
VL: DIVMTQSPDSLAVSLGERATINCKASQNVGTYVAWYQQKPGQPPKPLIYSTSYRYSGVPDRFSGSGSGTDFTLTISSLQAEDVAVYFCHQYDTYPLTFGQGTKLEIK

Sequences of proteins named here, by UniProt entry; tags and fusion partners are left off. A change or cut given only in a name is not applied to a line headed by its entry.
UniProt P16410: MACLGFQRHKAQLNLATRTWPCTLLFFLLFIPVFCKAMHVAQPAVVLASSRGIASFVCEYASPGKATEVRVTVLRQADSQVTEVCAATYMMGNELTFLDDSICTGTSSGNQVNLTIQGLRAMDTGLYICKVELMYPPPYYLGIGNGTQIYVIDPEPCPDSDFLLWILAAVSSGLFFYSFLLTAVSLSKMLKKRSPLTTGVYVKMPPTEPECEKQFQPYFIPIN

These binders were tested against huCTLA-4 ECD (his-tag) (human) (UniProt P16410) (assay: ELISA, coated huCTLA-4 his).

binding, binds:
B1
B2
B3
B4
B5
B6
B7
B8
B9
B10
B11
B12
B13
B14
B15
B16
B17
B18
B19
B20
B21
